Measured values: article PMC10688608
These are yes or no findings as the source states them, for the method shown. Binding seen in cells or lysates may run through a third protein. Some binding calls cover weakened binding; strength is not graded here.

Chains of the proteins cited; added tags and fusions are not shown.
UniProt Q96EB6: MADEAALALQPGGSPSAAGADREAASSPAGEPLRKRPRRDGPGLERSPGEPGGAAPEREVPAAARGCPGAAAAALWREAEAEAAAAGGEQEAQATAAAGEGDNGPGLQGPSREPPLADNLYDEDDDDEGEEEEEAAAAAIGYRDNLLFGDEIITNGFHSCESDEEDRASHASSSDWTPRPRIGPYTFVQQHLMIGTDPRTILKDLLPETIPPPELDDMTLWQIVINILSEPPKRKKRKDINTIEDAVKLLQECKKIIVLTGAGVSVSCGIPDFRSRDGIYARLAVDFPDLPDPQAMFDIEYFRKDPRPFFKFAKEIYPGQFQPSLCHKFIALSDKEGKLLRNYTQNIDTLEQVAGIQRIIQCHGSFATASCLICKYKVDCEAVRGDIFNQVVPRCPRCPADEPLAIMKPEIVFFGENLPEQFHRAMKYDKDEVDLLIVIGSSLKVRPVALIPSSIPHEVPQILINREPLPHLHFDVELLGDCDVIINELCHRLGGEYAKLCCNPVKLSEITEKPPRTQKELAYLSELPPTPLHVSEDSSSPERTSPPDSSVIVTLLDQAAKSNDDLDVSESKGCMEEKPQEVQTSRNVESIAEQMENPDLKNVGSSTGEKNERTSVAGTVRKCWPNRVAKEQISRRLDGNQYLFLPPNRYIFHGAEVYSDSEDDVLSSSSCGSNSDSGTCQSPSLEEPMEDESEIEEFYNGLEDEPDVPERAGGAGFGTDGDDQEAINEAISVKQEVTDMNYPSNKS
UniProt O75376: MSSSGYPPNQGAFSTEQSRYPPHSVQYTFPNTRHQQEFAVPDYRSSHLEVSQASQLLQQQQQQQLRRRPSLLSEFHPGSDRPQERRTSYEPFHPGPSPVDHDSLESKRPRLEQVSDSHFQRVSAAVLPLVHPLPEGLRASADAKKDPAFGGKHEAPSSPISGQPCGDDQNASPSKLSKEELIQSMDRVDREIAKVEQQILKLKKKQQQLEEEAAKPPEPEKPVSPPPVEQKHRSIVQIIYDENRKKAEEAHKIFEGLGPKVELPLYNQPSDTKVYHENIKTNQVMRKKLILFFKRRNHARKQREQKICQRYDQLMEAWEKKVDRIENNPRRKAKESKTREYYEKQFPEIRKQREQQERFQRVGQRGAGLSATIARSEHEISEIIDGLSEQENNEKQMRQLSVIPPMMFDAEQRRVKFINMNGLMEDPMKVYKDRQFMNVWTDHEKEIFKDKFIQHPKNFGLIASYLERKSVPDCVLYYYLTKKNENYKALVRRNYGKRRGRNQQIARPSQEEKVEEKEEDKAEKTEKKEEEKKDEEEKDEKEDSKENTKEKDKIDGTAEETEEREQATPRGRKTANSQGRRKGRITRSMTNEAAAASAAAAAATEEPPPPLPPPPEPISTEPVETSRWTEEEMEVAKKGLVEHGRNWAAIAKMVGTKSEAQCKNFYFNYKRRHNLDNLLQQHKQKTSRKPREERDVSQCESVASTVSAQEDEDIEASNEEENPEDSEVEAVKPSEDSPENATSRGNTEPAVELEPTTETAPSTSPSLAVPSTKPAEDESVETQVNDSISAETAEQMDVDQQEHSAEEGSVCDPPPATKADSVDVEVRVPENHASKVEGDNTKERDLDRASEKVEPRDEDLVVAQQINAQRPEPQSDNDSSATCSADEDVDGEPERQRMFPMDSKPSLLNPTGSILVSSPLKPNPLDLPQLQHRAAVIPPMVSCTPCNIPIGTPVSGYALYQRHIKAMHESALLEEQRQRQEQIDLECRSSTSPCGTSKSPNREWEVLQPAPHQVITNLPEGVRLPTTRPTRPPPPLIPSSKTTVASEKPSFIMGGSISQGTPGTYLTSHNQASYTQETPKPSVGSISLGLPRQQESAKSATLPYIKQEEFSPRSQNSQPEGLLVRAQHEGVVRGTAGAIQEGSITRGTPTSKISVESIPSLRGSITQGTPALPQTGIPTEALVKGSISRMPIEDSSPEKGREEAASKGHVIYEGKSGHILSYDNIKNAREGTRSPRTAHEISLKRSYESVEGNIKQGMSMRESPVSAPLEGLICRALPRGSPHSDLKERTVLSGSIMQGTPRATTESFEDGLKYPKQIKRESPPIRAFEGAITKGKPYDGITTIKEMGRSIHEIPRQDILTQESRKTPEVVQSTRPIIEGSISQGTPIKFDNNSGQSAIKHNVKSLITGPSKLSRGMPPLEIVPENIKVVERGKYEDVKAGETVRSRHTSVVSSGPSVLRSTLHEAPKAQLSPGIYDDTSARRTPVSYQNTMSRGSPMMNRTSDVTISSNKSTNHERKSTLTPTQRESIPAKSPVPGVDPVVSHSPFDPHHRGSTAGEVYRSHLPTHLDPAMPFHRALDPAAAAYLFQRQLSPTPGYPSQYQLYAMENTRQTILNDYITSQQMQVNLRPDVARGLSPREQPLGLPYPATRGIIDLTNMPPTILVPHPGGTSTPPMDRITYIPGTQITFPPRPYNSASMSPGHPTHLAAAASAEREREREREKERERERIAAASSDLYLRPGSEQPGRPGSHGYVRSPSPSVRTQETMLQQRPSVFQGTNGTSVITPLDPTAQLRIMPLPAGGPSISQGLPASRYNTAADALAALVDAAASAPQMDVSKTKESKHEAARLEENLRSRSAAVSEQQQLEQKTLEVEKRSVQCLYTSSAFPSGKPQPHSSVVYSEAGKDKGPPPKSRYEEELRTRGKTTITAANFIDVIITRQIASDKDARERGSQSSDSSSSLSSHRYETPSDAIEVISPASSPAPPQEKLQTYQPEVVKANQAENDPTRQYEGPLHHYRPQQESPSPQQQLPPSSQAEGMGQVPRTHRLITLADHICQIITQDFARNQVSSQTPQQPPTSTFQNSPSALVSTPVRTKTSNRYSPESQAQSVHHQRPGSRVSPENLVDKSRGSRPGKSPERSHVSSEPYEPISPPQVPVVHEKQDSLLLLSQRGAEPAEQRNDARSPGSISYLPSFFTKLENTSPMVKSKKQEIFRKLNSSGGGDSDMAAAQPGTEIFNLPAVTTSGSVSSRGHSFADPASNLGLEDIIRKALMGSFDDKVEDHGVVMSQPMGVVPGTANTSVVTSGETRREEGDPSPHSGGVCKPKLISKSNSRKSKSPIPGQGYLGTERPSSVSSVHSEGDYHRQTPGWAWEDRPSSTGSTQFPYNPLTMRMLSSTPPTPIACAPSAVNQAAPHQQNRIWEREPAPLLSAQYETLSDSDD

Molecular target: Sirtuin 1 (human (endogenous in HEK-293T)) (UniProt Q96EB6)
Experiment: co-IP; anti-SIRT1 antibody or IgG isotype control; HEK-293T cells transfected with empty vector or Snhg9-encoding vector; detection by immunoblot

## nuclear receptor corepressor 1 (from UniProt O75376 1-2440)
  binding: binds
